For at least one compound, name, drawing or mass did not settle the structure.
Experiments:
Format in all cases: cell-based, human
[1] = tested on: TSC2+/− LAM-SMCs; test: Cell viability (SyTox Green), LAM-SMCs
Protocol: (§1) HA (230 kDa) was functionalized with furfurylamine as previously described^[16] Furanyl-modified HA/MMPx-(maleimide)2 hydrogels were prepared as previously described ^[16] with the following modifications: To prepare 1.0 mL of 0.9% HA hydrogel with 25 μM vitronectin peptide for SMC culture, HA-furanyl (65% furanyl substitution, 9.0 mg HA, 13.3 μmol furanyl) was dissolved in 450 μL of dPBS (adjusted to pH 6.5), and added to 357.7 μL of dPBS (pH 6.5). 150.1 μL of maleimide2-MMP-degradable crosslinker peptide dissolved in 0.1 M MES buffer (pH 5.5, 50 mg/mL, 2.8 μmol of peptide, 5.6 μmol of maleimide) and 3.75 μL of maleimide-vitronectin peptide dissolved in 0.1 M MES buffer (pH 5.5, 12 mg/mL, 25 nmol) were added to the HA-furanyl solution and carefully mixed to prevent the formation of air bubbles. 38.5 μL of a thiolated methyl cellulose solution (2.6 mg/mL MC-SH in DI H2O, 100 nmolfree thiols/mgMC) was then added to this solution and mixed carefully with a pipette. Hydrogel formulations were tuned for lung cancer cells. For culturing primary cells from lung cancer tissue biopsies, 100 μM vitronectin peptides were used. For NCI-H1299, NCI-H446 and human bronchial epithelial cells, 100 μM vitronectin peptides and 100 μM fibronectin peptides were used. […]

[2] = tested on: TSC2+/− LAM-SMCs; test: Cell invasion into 3D HA hydrogels, LAM-SMCs
Protocol: as §1

[3] = tested on: MMP9; test: Gelatin zymography of conditioned media (MMP9 secretion), LAM-SMCs
Protocol: After 1 day of culture, conditioned media from 384-well plates was collected from each well for gelatin zymography. 8% polyacrylamide (PA) gels were used, and were prepared as previously described^[22] In general, the separating gel component of the zymography gels comprised 7.5 mL of 1.5 M Tris buffer (pH 8.8), 8.0 mL polyacrylamide solution (30%), 10.2 mL gelatin A (3 mg/mL), 2.7 mL water, 300 μL SDS, 300 μL 10% ammonium persulfate, and 36 μL TEMED. The separating gel was allowed to gel for 40 min at room temperature. The stacking gel was then prepared by mixing 5.0 mL of 0.5 M Tris buffer (pH 6.8), 2.6 mL polyacrylamide solution (30%), 12.2 mL water, 200 μL SDS, 150 μL 10% ammonium persulfate, and 30 μL TEMED. The stacking gel was poured on top of each gel and allowed to sit for 40 mins.
For each sample, 12 μL of conditioned media was mixed with 3 μL loading dye, and 12 μL was loaded into each lane. Running buffer comprising 25 mM Tris, 190 mM glycine and 0.1% SDS was used for gel electrophoresis. Following protein separation on the PA gels, gels were washed in 2.5% Triton X (3 times, 10 min each) to remove residual SDS, followed by DI water (5 times, 30 min each). Gels were then placed in an incubation buffer (50 mM Tris buffer pH 7.5 containing 5 mM CaCl2, 200 mM NaCl) and incubated at 37° C. overnight. […]

[4] = tested on: TSC2+/+ control SMCs; test: Cell viability (SyTox Green), control SMCs; conditions: 20 nM (and up to 1 μM); 2D TCPS or 3D gels

| SMILES | cell viability ([1]; 0.5 μM, 3D HA gels, normalized to DMSO) | relative percentage of invasive LAM-SMCs ([2]; 0.5 μM, compared to DMSO-treated controls) | MMP9 secretion ([3]; 0.5 μM) | viability [4] | viability ([1]; 20 nM (and up to 1 μM), 2D TCPS or 3D gels) | cell invasion of LAM-SMCs ([2]; rapamycin 20 nM, 3D HA gels) | MMP expression (active MMP-9) ([3]; rapamycin 20 nM) |
| --- | --- | --- | --- | --- | --- | --- | --- |
| CN1CCN(CCOc2cc(OC3CCOCC3)c3c(Nc4c(Cl)ccc5c4OCO5)ncnc3c2)CC1 [Saracatinib] | not significantly affecting | significantly decreased | not significantly affecting |  |  |  |  |
| CO[C@H]1C[C@@H]2CC[C@@H](C)[C@@](O)(O2)C(=O)C(=O)N2CCCC[C@H]2C(=O)O[C@H]([C@H](C)C[C@@H]2CC[C@@H](O)[C@H](OC)C2)CC(=O)[C@H](C)/C=C(\C)[C@@H](O)[C@@H](OC)C(=O)[C@H](C)C[C@H](C)/C=C/C=C/C=C/1C [rapamycin] |  |  |  | little effect | little effect | neither diminished cell invasion | nor decreased MMP expression |
